Results from publication PMC11427100.
These are yes or no findings as the source states them, for the method shown. Binding seen in cells or lysates may run through a third protein. Some results given as binding are weak or reduced against the parent protein; the word gives no strength.

Amino acid sequences for entries named in this document (tags omitted).
UniProt Q6R891: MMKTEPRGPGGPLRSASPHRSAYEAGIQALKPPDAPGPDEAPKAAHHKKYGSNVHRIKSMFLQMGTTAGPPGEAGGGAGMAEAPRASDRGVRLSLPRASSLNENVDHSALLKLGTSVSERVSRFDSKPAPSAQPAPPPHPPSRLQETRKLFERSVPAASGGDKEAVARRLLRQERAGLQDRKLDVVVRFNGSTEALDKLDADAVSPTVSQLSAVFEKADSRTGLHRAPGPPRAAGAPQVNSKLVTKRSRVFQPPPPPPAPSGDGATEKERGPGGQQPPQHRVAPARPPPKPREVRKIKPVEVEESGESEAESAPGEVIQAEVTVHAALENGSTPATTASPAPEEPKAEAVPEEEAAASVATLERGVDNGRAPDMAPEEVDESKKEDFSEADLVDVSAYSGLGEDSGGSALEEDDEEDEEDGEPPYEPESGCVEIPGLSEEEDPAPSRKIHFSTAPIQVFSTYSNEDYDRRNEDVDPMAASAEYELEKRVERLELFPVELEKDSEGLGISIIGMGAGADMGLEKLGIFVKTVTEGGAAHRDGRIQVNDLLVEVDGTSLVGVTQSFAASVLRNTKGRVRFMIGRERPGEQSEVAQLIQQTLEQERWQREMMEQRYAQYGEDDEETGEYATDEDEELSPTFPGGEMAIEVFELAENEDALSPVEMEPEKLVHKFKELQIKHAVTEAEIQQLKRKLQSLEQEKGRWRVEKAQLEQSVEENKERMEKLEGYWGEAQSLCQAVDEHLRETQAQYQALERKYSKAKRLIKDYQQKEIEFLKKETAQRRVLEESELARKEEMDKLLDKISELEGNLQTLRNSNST
UniProt H3BJD6: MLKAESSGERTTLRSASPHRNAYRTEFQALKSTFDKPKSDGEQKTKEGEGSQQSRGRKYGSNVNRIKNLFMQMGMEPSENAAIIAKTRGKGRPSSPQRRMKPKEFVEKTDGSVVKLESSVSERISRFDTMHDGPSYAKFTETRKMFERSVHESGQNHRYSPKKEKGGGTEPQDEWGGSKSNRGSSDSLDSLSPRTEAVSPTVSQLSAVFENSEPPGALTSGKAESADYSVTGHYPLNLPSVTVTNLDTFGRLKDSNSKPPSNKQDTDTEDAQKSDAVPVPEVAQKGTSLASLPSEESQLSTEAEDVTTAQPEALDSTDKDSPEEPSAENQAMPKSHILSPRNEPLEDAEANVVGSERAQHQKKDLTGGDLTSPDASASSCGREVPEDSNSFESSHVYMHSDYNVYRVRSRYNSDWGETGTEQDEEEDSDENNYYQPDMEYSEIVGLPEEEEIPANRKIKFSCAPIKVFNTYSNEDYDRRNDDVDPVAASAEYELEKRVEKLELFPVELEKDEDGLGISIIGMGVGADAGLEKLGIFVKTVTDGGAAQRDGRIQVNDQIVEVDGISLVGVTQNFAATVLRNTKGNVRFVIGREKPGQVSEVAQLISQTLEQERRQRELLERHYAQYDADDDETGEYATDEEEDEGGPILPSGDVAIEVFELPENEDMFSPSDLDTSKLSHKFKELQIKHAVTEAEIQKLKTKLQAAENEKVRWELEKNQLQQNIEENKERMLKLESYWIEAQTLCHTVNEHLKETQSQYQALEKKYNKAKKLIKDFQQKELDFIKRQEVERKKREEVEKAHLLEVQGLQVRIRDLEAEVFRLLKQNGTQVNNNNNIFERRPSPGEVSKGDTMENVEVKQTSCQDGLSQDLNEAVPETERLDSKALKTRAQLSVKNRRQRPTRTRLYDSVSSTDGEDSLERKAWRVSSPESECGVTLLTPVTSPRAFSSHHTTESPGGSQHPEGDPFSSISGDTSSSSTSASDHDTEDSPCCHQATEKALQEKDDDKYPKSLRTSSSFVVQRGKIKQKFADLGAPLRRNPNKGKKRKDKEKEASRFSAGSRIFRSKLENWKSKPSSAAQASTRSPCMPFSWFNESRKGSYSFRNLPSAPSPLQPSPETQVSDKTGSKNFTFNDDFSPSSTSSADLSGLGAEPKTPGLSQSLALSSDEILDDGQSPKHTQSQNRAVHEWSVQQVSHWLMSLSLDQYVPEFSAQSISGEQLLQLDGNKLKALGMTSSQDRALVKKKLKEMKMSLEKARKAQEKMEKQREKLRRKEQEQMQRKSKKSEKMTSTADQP

Molecular target: Spinophilin (mouse (endogenous in pancreas and isolated islets)) (UniProt Q6R891)
Experiment: co-IP; spinophilin immunoprecipitated from pancreas lysate (RIPA) of adult WT, Ins2^Akita and Lepr^db/db mice; immunoblot for PP1α, myosin-9, neurabin

binding: binds
Substance: Neurabin-1 (from UniProt H3BJD6 1-1292)
